From publication PMC11323322 come the findings set out here.

Protein sequences, listed by entry. Tags and fused reporters are not part of them. Residues count along the entry.
UniProt P08887, 20-355: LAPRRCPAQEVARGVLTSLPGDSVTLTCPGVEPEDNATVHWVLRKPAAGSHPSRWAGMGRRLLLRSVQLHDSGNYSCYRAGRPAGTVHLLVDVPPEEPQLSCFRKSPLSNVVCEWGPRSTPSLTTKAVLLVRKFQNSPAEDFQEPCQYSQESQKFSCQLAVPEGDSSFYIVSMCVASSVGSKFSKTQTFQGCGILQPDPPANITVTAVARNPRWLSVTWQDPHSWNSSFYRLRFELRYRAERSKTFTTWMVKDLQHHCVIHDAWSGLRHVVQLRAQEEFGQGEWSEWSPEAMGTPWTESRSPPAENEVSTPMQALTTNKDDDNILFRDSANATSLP
UniProt P05231, 30-212: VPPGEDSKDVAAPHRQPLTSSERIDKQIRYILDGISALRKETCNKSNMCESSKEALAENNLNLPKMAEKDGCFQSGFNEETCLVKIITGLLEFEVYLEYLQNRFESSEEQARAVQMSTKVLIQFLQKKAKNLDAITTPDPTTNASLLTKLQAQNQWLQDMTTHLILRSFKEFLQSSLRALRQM

For part of these data: A weaker result is weaker than the reference pair of the same experiment. For part of these data: The exact form of at least one protein or probe is not confirmed.

In series [1] the target is sIL-6R (soluble IL-6 receptor alpha) (human) (UniProt P08887). Kind of series: pull-down, real-time PCR. The settings on record: circular; 1x PBSMT pH 7.2: 137 mM NaCl, 2.68 mM KCl, 8.1 mM Na2HPO4, 1.76 mM KH2PO4, 1 mM MgCl2, 0.025% Tween-20; pull-down 1 h (room temperature in SELEX); commercial protein; single-stranded DNA. (In qPCR the cycle at which signal appears reflects the starting amount.)

Series [2] addresses IL-6 (interleukin-6) (human) (UniProt P05231). Kind of series: MST. As to conditions: lower affinity than CIL-6A6-1; 1x PBSMT pH 7.2: 137 mM NaCl, 2.68 mM KCl, 8.1 mM Na2HPO4, 1.76 mM KH2PO4, 1 mM MgCl2, 0.025% Tween-20; pull-down 1 h (room temperature in SELEX); MST at 25 C; commercial protein; single-stranded DNA.
The target in series [3] is sIL-6R (soluble IL-6 receptor alpha) (human) (UniProt P08887). Kind of series: MST. As to conditions: DNA version of RNA aptamer; 1x PBSMT pH 7.2: 137 mM NaCl, 2.68 mM KCl, 8.1 mM Na2HPO4, 1.76 mM KH2PO4, 1 mM MgCl2, 0.025% Tween-20; pull-down 1 h (room temperature in SELEX); MST at 25 C; commercial protein; folded or branched DNA.

Turning to “ATCTCGACTATTTTTTTTTTTTTTTTTTTTGGGGAGGCTGTGGTGAGGGTTTTTTTTTTTTTTTTTTTTTGTCTCGGAT [CIL-6A-R]”, in series [1], the binding result is reported as “binds more weakly”.
As for CTTCCAACGCTCGTATTGTCAGTCTTTAGT [IL62], the binding result in series [2] is “binds more weakly”.
As to “GGGGAGGCTGTGGTGAGGG [AIR-3A DNA counterpart]”, the Kd – broadly, the free concentration of one partner at which half of the binding sites on the other are occupied at equilibrium, for simple one-to-one binding – in series [3] amounted to 131 nM.
